Source: doi:10.1101/2023.03.17.533231
No constants are given. Whether binding was seen depends on the method and setting. Some entries that bind do so weakly or less than the wild type.

By UniProt entry, the sequences of proteins in these tests, tags left out.
UniProt Q8TEK3, whole entry: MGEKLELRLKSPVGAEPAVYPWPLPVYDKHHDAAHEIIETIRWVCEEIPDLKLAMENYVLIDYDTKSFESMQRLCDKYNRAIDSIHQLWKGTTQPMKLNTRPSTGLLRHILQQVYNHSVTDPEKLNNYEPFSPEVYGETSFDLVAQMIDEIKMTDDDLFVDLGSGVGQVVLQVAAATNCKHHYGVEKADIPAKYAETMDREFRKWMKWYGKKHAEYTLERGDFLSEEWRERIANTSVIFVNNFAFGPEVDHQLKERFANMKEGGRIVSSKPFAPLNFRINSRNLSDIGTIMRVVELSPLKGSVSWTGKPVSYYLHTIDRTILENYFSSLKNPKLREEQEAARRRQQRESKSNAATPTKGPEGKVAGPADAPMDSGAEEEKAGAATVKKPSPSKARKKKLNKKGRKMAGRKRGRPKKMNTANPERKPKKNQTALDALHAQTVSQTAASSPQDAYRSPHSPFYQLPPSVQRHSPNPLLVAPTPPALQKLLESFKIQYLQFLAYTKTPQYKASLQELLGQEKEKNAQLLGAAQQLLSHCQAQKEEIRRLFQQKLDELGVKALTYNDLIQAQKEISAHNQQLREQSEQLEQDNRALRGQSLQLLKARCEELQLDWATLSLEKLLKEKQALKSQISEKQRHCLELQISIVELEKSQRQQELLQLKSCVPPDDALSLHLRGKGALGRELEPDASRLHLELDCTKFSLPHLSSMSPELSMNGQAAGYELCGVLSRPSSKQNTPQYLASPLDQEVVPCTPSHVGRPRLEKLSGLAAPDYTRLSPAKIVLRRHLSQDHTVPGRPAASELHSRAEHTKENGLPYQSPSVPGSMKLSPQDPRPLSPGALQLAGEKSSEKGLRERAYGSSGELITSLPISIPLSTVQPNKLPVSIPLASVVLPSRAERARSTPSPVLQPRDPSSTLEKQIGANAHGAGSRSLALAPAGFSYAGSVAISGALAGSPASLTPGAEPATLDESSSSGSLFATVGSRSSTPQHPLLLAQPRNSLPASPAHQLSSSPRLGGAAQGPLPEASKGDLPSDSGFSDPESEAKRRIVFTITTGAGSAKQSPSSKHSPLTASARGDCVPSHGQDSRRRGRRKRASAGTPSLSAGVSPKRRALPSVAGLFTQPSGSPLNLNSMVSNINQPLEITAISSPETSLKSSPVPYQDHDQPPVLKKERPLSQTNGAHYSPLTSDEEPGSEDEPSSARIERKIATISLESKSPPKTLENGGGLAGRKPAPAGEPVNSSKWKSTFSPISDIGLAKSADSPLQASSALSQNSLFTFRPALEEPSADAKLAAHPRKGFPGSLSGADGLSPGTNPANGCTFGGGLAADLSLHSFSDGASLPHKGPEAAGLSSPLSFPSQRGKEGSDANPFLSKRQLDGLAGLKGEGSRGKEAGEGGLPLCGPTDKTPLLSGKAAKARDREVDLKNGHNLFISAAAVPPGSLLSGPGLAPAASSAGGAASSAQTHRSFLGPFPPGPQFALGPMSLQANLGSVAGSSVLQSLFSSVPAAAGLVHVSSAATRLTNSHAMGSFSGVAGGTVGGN

Biological target: T1, MLLT10 (human (endogenous in MV4;11)) (UniProt P55197)
T1 sequence: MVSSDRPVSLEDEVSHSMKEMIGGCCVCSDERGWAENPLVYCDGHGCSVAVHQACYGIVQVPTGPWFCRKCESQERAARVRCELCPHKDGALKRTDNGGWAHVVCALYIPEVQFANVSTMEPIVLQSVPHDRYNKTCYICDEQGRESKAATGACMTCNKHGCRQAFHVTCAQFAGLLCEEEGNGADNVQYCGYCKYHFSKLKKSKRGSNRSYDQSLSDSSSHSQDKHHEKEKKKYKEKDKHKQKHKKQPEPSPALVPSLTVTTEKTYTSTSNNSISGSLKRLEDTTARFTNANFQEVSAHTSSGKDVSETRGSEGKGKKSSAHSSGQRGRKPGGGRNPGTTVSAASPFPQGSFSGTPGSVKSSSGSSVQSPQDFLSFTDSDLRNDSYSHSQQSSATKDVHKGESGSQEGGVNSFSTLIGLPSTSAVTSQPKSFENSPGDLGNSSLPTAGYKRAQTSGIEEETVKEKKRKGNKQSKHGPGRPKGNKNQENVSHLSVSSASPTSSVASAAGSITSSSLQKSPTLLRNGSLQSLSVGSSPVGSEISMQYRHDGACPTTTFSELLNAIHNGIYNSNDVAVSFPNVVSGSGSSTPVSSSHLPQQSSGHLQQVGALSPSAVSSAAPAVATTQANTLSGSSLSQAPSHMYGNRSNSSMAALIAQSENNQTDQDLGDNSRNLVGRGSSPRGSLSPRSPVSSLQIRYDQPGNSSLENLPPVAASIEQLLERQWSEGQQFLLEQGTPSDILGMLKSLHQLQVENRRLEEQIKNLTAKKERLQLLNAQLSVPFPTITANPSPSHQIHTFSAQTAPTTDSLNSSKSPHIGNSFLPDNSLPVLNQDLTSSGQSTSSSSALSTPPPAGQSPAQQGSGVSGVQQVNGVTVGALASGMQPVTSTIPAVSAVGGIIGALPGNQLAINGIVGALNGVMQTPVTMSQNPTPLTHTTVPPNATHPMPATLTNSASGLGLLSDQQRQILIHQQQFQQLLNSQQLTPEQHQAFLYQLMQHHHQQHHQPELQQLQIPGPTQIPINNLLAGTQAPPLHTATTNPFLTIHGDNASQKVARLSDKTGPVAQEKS
Assay: SEC

binding: binds
Substance: DOT1L (from UniProt Q8TEK3 1-1537)
